The supplement of paper PMC8256030
Several values for one entry are separate records, joined by “and”; a condition that tells them apart may be missing. Equal entries are not always repeated. This is one part of the list. This data set is noisy: repeats of one test often differ as much as different tests do.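 HEK293T cells were given each compound shortly before transfection with a reporter in which red mCherry is followed by the SARS-CoV-2 frameshift element and then GFP in the −1 frame, so GFP appears only after frameshifting.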

Tested on: HEK293T
Test: percent viability (nuclei count) relative to control; higher = more viable cells
Settings: 10 µM; 24 h

| Compound | percent viability |
| --- | --- |
| NC(=O)c1ncn([C@@H]2O[C@H](CO)[C@@H](O)[C@H]2O)c1N [acadesine] | 214% |
| Nc1nc(Cl)nc2c1ncn2[C@@H]1O[C@H](CO)[C@@H](O)[C@@H]1F [clofarabine] | 263% and 104% |
| O=C(/C=C/C=C/c1ccc2c(c1)OCO2)N1CCCCC1 | 158% |
| C[C@H]1O[C@@H](O[C@H]2[C@@H](O)C[C@H](O[C@H]3[C@@H](O)C[C@H](O[C@H]4CC[C@@]5(C)[C@H](CC[C@@H]6[C@@H]5CC[C@]5(C)[C@@H](C7=CC(=O)OC7)CC[C@]65O)C4)O[C@@H]3C)O[C@@H]2C)C[C@H](O)[C@@H]1O [digitoxin] | 6.95% |
| CN(C(=O)CO/N=C(\c1ccccc1)c1ccc2c(c1)CN1CC(=O)NC1=N2)C1CCCCC1 [revizinone] | 158% |
| CN(C/C=C/C#CC(C)(C)C)Cc1cccc2ccccc12 [terbinafine] | 239% and 181% and 173% |
| CCOCCOC(=O)/C=C/c1ccc(OC)cc1 [cinoxate] | 275% |
| C=C1c2c(Cl)ccc(O)c2C(O)=C2C(=O)[C@]3(O)C(O)=C(C(N)=O)C(=O)[C@@H](N(C)C)[C@@H]3[C@@H](O)[C@H]12.O=C(O)c1cc(S(=O)(=O)O)ccc1O | 140% |
| Cn1nnnc1SCC1=C(C(=O)O)N2C(=O)[C@@H](NC(=O)[C@H](O)c3ccccc3)[C@H]2SC1 | 143% |
| Cc1ccc2nc(C)c(CCN3CCC(C(=O)c4ccc(F)cc4)CC3)c(=O)n2c1 [metrenperone] | 68% |
| CC(C)(C)NCC(O)COc1ccccc1C#N (stereo unspecified) [bunitrolol] | 352% |
